These are yes or no findings as the source states them, for the method shown. In cells and extracts the contact can be indirect. Here binding means that the protein was enriched with, or labelled near, the bait; the list need not be complete.
How the values were obtained:
[1] = target: PfPPP8-smV5 (P. falciparum 3D7) (UniProt C6S3C9); test: affinity purification with mass spectrometry; synchronised PfPPP8-smV5^Tet; PfCINCH-smMyc schizonts and parental 3D7 as control; lysed in RIPA buffer with protease inhibitors, sonicated; supernatant on magnetic anti-V5 and anti-Myc beads overnight at 4 °C; washed with RIPA and PBS; on-bead …; two biological replicates, consensus hits absent from the control
[2] = target: PfCINCH-smMyc (P. falciparum 3D7); test: as above

Amino acid sequences for entries named in this document (tags omitted). A change or cut given only in a name is not applied to a line headed by its entry.
UniProt C6S3C9: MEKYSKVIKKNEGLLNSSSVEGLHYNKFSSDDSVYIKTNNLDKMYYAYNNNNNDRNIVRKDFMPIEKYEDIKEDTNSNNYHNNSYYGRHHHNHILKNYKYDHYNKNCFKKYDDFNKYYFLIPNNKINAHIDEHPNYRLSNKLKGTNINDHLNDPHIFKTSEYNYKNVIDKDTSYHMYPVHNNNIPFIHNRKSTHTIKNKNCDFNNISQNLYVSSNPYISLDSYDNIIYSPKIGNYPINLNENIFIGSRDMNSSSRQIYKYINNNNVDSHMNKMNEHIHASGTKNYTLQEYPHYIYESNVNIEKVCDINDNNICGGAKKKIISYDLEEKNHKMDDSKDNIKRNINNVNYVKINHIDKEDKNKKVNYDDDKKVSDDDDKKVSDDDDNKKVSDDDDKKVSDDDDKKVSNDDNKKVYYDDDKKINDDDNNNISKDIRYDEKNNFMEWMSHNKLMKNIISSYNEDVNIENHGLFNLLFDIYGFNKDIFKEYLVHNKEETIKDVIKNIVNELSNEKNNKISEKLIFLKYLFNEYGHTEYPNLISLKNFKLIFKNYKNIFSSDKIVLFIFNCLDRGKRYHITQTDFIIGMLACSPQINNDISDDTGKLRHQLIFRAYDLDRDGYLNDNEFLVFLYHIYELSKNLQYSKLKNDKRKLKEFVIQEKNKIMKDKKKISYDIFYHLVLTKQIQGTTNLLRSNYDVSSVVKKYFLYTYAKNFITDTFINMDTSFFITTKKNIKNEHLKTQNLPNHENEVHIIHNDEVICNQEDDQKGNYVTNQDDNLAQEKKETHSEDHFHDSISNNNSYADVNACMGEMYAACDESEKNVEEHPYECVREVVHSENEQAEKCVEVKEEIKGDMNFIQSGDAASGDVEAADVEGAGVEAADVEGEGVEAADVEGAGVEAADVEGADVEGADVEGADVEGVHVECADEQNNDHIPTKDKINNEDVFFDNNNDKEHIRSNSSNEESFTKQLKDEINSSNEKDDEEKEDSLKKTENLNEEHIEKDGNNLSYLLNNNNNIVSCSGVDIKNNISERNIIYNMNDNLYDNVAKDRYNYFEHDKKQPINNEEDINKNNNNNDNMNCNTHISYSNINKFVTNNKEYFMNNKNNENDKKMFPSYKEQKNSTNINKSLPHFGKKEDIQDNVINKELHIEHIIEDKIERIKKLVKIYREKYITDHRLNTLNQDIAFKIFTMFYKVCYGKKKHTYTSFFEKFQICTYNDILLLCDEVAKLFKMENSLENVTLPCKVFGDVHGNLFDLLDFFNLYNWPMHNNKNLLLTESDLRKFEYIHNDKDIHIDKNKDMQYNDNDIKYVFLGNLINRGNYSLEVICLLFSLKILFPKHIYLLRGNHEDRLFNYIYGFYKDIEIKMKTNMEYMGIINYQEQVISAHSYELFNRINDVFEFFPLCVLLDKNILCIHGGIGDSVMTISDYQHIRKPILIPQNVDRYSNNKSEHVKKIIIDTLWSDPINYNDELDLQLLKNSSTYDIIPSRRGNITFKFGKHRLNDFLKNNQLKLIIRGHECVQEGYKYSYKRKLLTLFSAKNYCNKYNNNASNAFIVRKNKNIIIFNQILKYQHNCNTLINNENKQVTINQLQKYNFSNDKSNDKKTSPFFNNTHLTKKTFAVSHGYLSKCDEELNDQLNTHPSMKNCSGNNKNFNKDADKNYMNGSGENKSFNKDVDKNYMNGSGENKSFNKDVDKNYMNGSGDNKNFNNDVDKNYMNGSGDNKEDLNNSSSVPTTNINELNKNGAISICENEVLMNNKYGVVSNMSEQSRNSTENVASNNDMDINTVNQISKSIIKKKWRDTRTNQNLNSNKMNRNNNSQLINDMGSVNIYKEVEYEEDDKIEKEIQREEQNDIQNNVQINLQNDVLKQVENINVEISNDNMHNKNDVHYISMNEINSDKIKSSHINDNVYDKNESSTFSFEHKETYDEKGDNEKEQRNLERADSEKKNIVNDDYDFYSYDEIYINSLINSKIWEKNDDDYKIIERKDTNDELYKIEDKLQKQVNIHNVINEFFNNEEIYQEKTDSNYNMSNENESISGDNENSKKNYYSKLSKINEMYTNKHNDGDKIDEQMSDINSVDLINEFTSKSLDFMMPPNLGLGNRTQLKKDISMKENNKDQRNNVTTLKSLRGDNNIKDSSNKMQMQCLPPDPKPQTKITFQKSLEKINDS
UniProt A0A144A488: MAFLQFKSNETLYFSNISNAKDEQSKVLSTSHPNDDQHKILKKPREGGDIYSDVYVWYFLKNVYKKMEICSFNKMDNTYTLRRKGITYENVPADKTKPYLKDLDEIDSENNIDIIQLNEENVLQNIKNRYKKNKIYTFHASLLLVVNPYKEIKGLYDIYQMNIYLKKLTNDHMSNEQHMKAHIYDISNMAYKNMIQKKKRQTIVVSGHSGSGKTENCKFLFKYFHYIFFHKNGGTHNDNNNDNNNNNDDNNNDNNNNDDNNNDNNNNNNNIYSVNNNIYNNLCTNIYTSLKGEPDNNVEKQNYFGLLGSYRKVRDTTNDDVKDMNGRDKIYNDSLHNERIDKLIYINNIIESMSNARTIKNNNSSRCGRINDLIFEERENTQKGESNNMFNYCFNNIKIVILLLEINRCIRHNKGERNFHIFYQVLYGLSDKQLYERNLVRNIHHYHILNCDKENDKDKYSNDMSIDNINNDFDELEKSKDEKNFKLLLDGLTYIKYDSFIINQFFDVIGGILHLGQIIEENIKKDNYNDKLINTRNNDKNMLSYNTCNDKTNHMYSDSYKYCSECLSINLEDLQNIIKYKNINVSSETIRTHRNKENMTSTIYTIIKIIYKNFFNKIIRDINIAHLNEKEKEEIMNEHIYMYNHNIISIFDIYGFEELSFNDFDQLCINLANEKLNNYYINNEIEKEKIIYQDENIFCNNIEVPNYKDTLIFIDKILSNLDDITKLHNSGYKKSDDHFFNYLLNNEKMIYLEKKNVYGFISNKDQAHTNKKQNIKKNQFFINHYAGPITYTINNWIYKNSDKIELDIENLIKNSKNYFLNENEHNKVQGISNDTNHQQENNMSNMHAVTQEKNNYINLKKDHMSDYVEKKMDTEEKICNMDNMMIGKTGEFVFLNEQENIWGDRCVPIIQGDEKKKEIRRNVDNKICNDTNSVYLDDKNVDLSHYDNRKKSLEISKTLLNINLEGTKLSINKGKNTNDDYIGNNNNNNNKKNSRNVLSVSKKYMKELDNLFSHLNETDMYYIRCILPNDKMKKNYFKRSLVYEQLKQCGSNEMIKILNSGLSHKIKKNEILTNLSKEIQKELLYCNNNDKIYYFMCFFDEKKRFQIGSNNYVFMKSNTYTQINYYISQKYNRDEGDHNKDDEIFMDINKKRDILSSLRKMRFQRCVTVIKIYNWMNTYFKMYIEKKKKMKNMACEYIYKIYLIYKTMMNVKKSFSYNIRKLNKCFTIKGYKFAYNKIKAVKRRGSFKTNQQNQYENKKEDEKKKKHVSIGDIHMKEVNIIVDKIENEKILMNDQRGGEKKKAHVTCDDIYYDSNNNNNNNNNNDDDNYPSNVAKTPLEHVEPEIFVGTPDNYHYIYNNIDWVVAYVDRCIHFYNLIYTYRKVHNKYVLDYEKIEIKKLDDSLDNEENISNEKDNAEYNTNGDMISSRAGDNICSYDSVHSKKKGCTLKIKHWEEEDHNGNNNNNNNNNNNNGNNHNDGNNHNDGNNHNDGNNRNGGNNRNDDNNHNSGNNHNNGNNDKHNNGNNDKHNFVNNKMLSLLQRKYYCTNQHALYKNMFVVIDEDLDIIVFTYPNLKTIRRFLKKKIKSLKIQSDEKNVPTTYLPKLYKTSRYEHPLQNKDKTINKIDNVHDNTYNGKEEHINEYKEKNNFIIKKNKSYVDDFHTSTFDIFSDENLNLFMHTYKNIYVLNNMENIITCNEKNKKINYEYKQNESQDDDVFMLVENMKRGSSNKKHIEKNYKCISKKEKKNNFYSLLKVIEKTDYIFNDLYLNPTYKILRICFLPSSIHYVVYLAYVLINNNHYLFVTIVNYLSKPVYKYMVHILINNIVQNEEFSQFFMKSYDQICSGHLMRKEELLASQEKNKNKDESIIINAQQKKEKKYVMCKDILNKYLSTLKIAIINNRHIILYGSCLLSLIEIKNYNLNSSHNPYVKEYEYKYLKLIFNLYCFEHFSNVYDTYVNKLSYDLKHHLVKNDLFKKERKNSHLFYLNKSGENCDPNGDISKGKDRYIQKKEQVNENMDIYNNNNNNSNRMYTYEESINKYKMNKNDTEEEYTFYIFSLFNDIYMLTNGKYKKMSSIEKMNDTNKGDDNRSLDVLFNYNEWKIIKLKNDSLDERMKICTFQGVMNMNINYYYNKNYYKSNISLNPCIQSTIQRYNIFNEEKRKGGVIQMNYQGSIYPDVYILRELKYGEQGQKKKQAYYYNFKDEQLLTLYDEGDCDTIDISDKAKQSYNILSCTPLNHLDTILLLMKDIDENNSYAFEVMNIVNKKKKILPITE

binding [1]	binding [2]	Molecule
binds		PfMyoJ (from UniProt A0A144A488)
binds	binds	PF3D7_0214700 (protein, UniProt O96227 1-301) MINTFQIRDFNKFPFSSNEQKIISHFTNEHNDKFNDNLSQLQIPQELKKNIITNNLHDEKVILTDNNMKEKCNHIDRDTITKEISIERLLHKIRNLENEKKFLLRFLENKKNIELEYKKALETQAAYVNSENKKSQFYENEWLNMKSLEYSLINSGKEPLRQSLEMLYDDSNINKLGGLTRNQEMFIIKLIEDHKNLNKERSIISKKYNEAVDANFQLYQQNEMLKAQNISLLEKNKDLVNEELDKKLNALNSSLIYVQKENIQLQDVLDQYSKLIKNIKDCPDMKAVNDELNKFANYLSI
